Experimental data published in the M2OR odorant receptor database.
Residue numbers refer to the chain shown, from its start. The entries are a selection whose mix differs from that of the whole data set. Calls are pooled over several reports, among them a noisy single-well screen. The list shows a part of the results.

Chains of the proteins cited; added tags and fusions are not shown. Chains listed by the source or under a name are the forms on record and can include a tag or linker.
OR8B3, as listed by the source: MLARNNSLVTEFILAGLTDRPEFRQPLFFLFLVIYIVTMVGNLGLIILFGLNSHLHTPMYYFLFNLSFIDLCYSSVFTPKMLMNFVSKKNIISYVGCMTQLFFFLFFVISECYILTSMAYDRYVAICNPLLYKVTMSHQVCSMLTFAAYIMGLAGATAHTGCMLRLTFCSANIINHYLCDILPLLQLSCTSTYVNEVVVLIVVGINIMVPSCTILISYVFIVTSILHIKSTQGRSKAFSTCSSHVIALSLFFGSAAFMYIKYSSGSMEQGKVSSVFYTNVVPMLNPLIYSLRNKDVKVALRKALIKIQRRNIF
OR8B4, as listed by the source: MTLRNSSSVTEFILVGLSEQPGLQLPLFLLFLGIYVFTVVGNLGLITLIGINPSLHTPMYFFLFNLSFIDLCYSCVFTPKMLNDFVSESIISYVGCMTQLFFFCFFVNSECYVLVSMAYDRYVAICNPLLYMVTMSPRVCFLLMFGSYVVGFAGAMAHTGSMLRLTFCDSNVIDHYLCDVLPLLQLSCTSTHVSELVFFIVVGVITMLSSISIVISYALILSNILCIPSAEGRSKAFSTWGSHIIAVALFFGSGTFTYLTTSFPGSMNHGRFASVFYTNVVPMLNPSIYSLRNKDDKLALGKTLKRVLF

How the values were obtained:
Conditions in all cases: stereoisomer not certain
OR8A1 = tested on: T1, OR8A1
T1 sequence (whole entry): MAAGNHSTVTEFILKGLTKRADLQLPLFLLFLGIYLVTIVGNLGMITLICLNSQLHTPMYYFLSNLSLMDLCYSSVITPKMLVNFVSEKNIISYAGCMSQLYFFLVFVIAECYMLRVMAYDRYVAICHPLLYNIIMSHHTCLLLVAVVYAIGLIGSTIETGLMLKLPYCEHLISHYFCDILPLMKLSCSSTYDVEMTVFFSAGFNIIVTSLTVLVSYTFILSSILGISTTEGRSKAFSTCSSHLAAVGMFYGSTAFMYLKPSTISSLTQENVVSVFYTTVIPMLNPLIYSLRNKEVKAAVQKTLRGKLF
Method in brief: (§1)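 Whether a receptor–molecule pair is responsive (active) rests on the original authors' judgment that its measured signal was statistically different from baseline. Pairs without that judgment are non-responsive (inactive). Sources used varied assay methods, commonly transient luciferase assays in mammalian cell lines.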

OR8B12 (Homo sapiens) = biological target: T2, OR8B12 (Homo sapiens) (UniProt Q8NGG6)
T2 sequence (whole entry): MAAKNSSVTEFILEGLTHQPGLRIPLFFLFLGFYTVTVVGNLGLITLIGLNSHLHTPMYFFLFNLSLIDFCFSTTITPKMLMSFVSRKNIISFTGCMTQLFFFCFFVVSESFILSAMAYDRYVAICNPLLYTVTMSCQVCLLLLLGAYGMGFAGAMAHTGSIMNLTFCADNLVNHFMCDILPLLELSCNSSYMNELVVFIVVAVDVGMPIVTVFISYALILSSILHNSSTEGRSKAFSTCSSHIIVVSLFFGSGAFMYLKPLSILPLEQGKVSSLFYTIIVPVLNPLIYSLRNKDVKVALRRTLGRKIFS
Method in brief: as §1

OR8B2 (Homo sapiens) = biological target: T3, OR8B2 (Homo sapiens) (UniProt Q96RD0)
T3 sequence (whole entry): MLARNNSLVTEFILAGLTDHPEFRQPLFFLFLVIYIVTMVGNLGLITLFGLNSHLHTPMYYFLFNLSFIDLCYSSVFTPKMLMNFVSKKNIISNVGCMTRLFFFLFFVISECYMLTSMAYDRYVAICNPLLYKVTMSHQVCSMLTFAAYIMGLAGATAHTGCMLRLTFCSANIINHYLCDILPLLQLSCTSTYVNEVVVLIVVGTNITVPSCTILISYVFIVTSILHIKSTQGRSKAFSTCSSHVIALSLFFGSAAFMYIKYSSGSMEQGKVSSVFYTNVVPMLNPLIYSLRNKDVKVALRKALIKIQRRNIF
Method in brief: as §1

OR8B3 = tested on: T4, OR8B3
T4 sequence (whole entry): T3 sequence (whole entry) with H20R, T47I, N94Y, R100Q, M114I, T205I, T208M
Method in brief: as §1

OR8B4 [1] = tested on: T5, OR8B4
T5 sequence (whole entry): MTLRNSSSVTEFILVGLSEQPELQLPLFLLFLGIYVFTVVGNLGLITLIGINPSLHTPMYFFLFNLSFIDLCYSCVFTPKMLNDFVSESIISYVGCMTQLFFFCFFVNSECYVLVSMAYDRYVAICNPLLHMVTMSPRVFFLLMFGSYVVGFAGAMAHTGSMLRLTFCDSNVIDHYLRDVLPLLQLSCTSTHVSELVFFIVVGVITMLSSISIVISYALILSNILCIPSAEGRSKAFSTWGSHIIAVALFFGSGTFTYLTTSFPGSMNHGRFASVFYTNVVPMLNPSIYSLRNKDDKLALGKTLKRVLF
Method in brief: as §1

OR8B4 [2] = tested on: T6, OR8B4; remark: listed apart in the source
T6 sequence (whole entry): T5 sequence (whole entry) with E22G, H131Y, F140C, R178C
Method in brief: as §1

OR8B8 (Homo sapiens) = biological target: T7, OR8B8 (Homo sapiens) (UniProt Q15620)
T7 sequence (whole entry): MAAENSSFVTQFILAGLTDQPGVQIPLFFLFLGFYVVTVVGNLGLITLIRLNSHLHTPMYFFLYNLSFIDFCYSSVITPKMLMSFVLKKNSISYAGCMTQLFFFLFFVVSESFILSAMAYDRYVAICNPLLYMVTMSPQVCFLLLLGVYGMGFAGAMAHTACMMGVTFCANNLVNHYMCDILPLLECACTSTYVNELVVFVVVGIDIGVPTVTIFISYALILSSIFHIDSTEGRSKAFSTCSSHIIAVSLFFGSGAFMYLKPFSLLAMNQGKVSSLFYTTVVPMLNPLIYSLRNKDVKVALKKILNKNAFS
Method in brief: as §1

OR8B8 = tested on: T8, OR8B8
T8 sequence (whole entry): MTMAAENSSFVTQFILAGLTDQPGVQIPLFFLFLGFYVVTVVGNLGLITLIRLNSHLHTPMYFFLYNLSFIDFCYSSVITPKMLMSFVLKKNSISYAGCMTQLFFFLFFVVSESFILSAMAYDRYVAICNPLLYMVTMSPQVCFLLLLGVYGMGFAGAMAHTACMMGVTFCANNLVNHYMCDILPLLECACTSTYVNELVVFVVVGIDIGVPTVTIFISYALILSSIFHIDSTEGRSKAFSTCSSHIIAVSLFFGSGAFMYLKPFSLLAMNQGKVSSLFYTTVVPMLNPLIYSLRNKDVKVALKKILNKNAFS
Method in brief: as §1

OR8D1 (Homo sapiens) = biological target: T9, OR8D1 (Homo sapiens) (UniProt Q8WZ84)
T9 sequence (whole entry): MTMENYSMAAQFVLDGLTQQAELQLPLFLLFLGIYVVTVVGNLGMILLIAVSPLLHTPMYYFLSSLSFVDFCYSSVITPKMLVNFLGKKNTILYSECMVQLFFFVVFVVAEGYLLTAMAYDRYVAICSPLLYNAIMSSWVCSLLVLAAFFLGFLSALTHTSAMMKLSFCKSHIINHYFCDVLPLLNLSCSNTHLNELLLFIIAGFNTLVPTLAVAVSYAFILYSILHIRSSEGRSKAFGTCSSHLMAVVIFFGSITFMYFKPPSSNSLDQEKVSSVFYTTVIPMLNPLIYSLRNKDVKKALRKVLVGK
Method in brief: as §1

OR8D2 (Homo sapiens) = biological target: T10, OR8D2 (Homo sapiens) (UniProt Q9GZM6)
T10 sequence (whole entry): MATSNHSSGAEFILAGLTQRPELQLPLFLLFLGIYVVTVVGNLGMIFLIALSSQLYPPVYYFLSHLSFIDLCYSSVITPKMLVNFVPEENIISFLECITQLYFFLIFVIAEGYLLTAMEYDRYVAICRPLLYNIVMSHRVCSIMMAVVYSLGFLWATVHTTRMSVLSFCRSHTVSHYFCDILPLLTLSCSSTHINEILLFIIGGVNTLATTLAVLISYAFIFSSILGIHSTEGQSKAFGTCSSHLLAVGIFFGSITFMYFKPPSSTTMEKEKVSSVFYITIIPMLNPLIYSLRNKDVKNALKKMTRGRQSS
Method in brief: as §1

OR8D4 = tested on: T11, OR8D4
T11 sequence (whole entry): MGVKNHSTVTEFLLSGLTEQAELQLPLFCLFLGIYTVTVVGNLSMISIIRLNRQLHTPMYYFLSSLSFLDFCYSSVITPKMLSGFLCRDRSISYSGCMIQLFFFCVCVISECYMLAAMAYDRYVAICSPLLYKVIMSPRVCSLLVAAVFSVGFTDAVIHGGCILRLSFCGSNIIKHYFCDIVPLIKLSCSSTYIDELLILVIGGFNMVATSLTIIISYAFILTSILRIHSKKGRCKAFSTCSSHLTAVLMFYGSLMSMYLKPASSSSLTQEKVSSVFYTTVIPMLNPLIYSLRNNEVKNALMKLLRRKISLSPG
Method in brief: as §1

OR8G1 (Homo sapiens) = biological target: T12, OR8G1 (Homo sapiens) (UniProt Q15617)
T12 sequence (whole entry): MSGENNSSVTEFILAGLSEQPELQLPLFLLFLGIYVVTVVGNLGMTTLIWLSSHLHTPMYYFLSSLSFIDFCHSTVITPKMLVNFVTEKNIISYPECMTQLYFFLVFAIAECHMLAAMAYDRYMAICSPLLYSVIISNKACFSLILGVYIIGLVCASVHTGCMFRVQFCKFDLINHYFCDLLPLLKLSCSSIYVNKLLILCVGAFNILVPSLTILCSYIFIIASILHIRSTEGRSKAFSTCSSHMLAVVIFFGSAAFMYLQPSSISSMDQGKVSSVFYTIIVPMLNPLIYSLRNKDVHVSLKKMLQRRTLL
Method in brief: as §1

OR8G5 (Homo sapiens) = biological target: T13, OR8G5 (Homo sapiens) (UniProt Q8NG78)
T13 sequence (whole entry): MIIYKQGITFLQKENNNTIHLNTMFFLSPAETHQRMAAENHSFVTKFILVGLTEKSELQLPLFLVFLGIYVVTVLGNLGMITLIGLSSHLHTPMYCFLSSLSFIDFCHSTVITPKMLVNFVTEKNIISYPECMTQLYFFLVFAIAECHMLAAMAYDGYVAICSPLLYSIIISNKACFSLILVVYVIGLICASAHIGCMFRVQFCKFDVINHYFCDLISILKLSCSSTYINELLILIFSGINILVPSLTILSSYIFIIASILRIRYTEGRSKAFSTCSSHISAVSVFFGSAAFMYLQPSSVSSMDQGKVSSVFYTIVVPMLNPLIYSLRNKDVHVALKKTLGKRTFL
Method in brief: as §1

OR8G5 = tested on: T14, OR8G5
T14 sequence (whole entry): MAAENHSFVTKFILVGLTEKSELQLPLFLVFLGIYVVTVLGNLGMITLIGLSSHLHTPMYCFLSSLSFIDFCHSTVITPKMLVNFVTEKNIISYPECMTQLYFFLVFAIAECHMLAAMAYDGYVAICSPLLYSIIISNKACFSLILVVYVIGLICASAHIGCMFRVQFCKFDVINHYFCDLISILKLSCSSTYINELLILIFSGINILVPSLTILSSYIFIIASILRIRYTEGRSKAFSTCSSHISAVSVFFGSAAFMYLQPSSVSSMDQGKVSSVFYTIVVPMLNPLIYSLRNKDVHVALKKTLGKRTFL
Method in brief: as §1

OR8H1 (Homo sapiens) = biological target: T15, OR8H1 (Homo sapiens) (UniProt Q8NGG4)
T15 sequence (whole entry): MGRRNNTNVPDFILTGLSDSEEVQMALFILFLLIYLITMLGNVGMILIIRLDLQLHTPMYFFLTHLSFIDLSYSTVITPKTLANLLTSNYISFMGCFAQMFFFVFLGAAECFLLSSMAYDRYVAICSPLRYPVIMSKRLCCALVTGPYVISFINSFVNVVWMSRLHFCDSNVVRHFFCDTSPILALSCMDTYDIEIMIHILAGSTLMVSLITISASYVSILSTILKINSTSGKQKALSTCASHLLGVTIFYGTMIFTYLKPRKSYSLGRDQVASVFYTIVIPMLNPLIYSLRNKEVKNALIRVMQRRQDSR
Method in brief: as §1

OR8H2 = tested on: T16, OR8H2
T16 sequence (whole entry): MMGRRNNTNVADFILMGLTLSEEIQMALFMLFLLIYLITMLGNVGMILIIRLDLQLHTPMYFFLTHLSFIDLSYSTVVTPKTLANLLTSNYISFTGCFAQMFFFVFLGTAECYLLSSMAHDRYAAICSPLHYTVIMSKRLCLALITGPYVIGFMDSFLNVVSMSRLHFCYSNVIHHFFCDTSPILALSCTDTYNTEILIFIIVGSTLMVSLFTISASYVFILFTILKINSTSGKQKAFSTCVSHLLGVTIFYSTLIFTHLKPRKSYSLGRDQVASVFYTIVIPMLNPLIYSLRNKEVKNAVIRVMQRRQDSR
Method in brief: as §1
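Further: active if original authors judged signal statistically different from baseline.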

SMILES | odorant receptor agonist call (OR8A1) | odorant receptor agonist call (OR8B12 (Homo sapiens)) | odorant receptor agonist call (OR8B2 (Homo sapiens)) | odorant receptor agonist call (OR8B3) | odorant receptor agonist call (OR8B4 [1]) | odorant receptor agonist call (OR8B4 [2]) | odorant receptor agonist call (OR8B8 (Homo sapiens)) | odorant receptor agonist call (OR8B8) | odorant receptor agonist call (OR8D1 (Homo sapiens)) | odorant receptor agonist call (OR8D2 (Homo sapiens)) | odorant receptor agonist call (OR8D4) | odorant receptor agonist call (OR8G1 (Homo sapiens)) | odorant receptor agonist call (OR8G5 (Homo sapiens)) | odorant receptor agonist call (OR8G5) | odorant receptor agonist call (OR8H1 (Homo sapiens)) | odorant receptor agonist call (OR8H2)
C=CCc1ccc(OC(C)=O)c(OC)c1 | inactive | active | active | active | inactive | inactive | inactive | inactive | inactive | inactive | inactive | inactive | inactive | inactive | inactive | inactive
COC(=O)c1ccccc1O | inactive | inactive | inactive | inactive | inactive | inactive | inactive | inactive | inactive | inactive | inactive | inactive | inactive | inactive | inactive | inactive
C=CCc1ccc(O)c(OC)c1 | – | – | – | – | – | – | – | – | inactive | – | – | – | – | – | – | –
CC(C)(C)c1ccc(CCC=O)cc1 | inactive | inactive | inactive | inactive | inactive | inactive | inactive | inactive | inactive | inactive | inactive | inactive | inactive | inactive | inactive | inactive
O=C1CCCCC1 | inactive | – | – | – | inactive | inactive | inactive | inactive | inactive | inactive | inactive | inactive | inactive | inactive | inactive | inactive
CC(C)CC(=O)O | inactive | active | inactive | inactive | inactive | inactive | inactive | inactive | inactive | inactive | inactive | inactive | inactive | inactive | inactive | inactive
C=C(C)C1CC=C(C)C(=O)C1 (configuration not stated) | – | – | inactive | active | – | – | – | – | inactive | – | – | – | – | – | – | –
CCCCCCCC=O | inactive | inactive | inactive | inactive | inactive | inactive | inactive | inactive | inactive | inactive | inactive | inactive | inactive | inactive | inactive | inactive
